The results in this text go back to article PMC8177813 (Journal of pharmaceutical sciences, 2020).

One test has as its target T1, human OAT1 (Homo sapiens, UniProt Q4U2R8).
T1 sequence (Q4U2R8 1-563): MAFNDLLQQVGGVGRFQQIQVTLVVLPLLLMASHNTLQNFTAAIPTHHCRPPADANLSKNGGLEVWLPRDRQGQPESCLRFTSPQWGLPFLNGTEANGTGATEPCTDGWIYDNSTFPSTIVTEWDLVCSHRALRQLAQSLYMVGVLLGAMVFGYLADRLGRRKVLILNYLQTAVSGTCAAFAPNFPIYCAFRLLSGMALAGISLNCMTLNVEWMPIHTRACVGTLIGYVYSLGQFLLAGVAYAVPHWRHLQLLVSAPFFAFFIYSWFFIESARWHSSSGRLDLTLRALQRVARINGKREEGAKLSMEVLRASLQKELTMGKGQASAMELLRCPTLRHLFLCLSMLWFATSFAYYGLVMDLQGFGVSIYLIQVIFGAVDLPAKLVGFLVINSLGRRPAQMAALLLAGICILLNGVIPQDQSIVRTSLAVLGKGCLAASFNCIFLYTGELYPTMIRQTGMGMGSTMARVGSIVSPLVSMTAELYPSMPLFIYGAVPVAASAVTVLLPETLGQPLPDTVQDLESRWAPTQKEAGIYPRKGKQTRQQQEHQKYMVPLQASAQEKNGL
Nature of the test: Inhibition of OAT1-mediated 6-carboxyfluorescein.

In a further test the target is T2, human OAT3 (Homo sapiens, UniProt Q8TCC7).
T2 sequence (Q8TCC7 1-542): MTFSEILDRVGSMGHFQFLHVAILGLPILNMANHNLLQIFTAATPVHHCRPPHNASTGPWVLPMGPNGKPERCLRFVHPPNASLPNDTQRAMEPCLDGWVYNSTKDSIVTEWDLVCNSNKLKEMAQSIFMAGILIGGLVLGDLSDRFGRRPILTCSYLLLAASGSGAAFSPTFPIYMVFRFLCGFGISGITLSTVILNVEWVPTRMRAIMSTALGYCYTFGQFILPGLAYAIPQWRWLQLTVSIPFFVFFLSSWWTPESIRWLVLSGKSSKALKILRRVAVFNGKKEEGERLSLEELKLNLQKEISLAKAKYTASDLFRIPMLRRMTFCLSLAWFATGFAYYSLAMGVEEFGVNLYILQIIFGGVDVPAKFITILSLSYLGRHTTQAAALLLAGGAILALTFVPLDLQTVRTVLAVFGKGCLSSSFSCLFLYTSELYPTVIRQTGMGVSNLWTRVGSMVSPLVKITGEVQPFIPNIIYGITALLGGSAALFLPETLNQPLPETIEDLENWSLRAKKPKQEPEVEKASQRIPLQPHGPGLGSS
The test can be described thus: cell-based.

With `COc1ccc2cc([C@H](C)C(=O)O)ccc2c1` [Naproxen, reference compound], the Ki at human OAT1 turned out to be 3.23 µM; on human OAT3 it was 4.75 µM.

For orientation: Ki means a measure of affinity in units of concentration, obtained from inhibition or displacement.
